# No constants are given. Whether binding was seen depends on the method and setting. Binding calls can cover weak binding; strength is not graded here. Tags and fused reporters may be left off the sequences shown. For part of these data: Binding seen in cells or lysates may run through a third protein.
# By UniProt entry, the sequences of proteins in these tests, tags left out. Where a name states a change or a piece, a line headed by the entry shows the natural chain unless it says otherwise.
# UniProt Q3TQQ9: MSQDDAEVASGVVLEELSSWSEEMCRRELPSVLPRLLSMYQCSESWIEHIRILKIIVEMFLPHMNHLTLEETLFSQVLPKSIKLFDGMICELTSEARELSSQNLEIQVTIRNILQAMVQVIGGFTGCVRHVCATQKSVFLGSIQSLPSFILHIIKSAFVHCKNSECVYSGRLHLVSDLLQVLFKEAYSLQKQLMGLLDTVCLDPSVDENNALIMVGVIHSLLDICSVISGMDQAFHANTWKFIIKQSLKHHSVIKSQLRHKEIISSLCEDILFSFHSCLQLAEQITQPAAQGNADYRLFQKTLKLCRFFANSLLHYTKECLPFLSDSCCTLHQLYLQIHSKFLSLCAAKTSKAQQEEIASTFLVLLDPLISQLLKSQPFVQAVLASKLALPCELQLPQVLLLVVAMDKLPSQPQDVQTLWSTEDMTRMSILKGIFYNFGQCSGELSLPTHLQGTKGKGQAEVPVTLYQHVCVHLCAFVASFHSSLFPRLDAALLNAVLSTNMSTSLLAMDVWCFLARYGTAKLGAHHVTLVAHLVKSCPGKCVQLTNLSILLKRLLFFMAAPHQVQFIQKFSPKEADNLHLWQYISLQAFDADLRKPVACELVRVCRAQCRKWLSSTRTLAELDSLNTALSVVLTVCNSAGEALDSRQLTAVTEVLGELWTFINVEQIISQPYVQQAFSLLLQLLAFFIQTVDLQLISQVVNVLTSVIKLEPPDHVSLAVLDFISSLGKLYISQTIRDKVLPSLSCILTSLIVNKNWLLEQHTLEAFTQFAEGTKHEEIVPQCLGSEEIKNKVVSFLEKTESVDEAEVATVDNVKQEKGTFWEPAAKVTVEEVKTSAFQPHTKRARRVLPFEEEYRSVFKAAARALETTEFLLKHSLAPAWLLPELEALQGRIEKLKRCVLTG
# T1: SWSAP1 (mouse), N-terminally tagged (mouse) (UniProt Q8VCI7)
# T1 sequence: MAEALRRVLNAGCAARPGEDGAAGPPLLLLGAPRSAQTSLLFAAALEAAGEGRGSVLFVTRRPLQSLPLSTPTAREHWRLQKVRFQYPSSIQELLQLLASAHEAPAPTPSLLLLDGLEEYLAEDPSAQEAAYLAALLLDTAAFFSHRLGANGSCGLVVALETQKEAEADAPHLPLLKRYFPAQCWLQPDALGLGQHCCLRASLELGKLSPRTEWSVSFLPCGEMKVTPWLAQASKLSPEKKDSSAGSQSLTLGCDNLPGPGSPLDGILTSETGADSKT
# T2: DMC1 (mouse), N-terminally tagged (mouse) (UniProt Q61880)
# T2 sequence: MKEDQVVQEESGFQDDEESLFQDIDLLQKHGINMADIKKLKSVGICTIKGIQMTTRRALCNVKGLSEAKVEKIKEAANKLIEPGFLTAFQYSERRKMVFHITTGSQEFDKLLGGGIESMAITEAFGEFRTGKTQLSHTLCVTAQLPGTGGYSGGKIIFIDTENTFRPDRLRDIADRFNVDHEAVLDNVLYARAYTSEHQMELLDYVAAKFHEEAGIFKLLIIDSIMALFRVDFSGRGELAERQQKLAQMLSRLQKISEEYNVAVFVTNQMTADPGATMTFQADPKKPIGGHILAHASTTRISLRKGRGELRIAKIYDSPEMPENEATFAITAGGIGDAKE
# Tests used:
# [1] = target: T1, SWSAP1 (mouse), N-terminally tagged (mouse); experiment: co-IP; 293T cells transiently transfected with N-terminally FLAG-, HA- or GFP-tagged mouse proteins, harvested after 24 h; lysis in 25 mM Tris-HCl pH 7.5, 300 mM NaCl, 1% Triton X-100, 1 mM DTT, 1 mM EDTA with sonication; antibody-conjugated agarose beads, 4°C, 4 h; Western blot. RAD51-FLIP co-precipitate strong with overexpressed FIGNL1, basal without exogenous FIGNL1
# [2] = target: T2, DMC1 (mouse), N-terminally tagged (mouse); experiment: as above
# [3] = target: GST-FLIP (not stated (human or mouse cDNA cloned)) (UniProt Q3TQQ9); experiment: pull-down; in vitro GST pull-down: 0.05 μg GST or GST-FLIP on glutathione agarose beads with 0.1 μg MBP, MBP-FIGNL1 or MBP-RAD51 in 800 μl NETN buffer (20 mM Tris HCl pH 8.0, 100 mM NaCl, 1 mM EDTA, 0.5% Nonidet P-40), 4°C, 30 min; immunoblot; both purified
# [4] = target: FLAG-tagged wild-type FLIP (mouse) (mouse) (UniProt Q3TQQ9); experiment: co-IP; 293T cells transiently transfected with N-terminally FLAG-, HA- or GFP-tagged mouse proteins, harvested after 24 h; lysis in 25 mM Tris-HCl pH 7.5, 300 mM NaCl, 1% Triton X-100, 1 mM DTT, 1 mM EDTA with sonication; antibody-conjugated agarose beads, 4°C, 4 h; Western blot. RAD51-FLIP co-precipitate strong with overexpressed FIGNL1, basal without exogenous FIGNL1
Molecule,binding [4],other results
FLAG-tagged wild-type FLIP (mouse) (from UniProt Q3TQQ9),,binding [1]: binds; binding [2]: binds
"MBP-FIGNL1 (protein, UniProt Q8BPY9 1-683) METSSSMSVETTRSVQVDEWQKNYCVVTSSICTPKQKADAYRALLLHIQYAYANSEISQVFATNLFKRYTEKYSAIIDSDNVVTGLNNYAESIFALAGSRQADSNKWQSGLSIDNVFKMSCVQEMMQAGKKFEESLLEPADASVVLCKEPTAFEVPQLSVCGGSEDADILSSSGHDTDKTQAIPGSSLRCSPFQSARLPKETNTTKTCLTSSTSLGESATAAFHMTPLFGNTEKDTQSFPKTSTGLNMFLSNLSCVPSGCENPQERKAFNDSDIIDILSNPTLNKAPSKTEDRGRREDNSLPTFKTAKEQLWVDQKKKGHQSQHTSKSSNGVMKKSLGAGRSRGIFGKFVPPVSNKQDGSEQHAKKHKSSRAGSAEPAHLTDDCLKNVEPRMVELIMNEIMDHGPPVHWDDIAGVEFAKATIKEIVVWPMMRPDIFTGLRGPPKGILLFGPPGTGKTLIGKCIASQSGATFFSISASSLTSKWVGEGEKMVRALFAVARCQQPAVIFIDEIDSLLSQRGDGEHESSRRIKTEFLVQLDGATTSSEDRILVVGATNRPQEIDEAARRRLVKRLYIPLPEASARKQIVGNLMSKEQCCLSDEETDLVVQQSDGFSGADMTQLCREASLGPIRSLHAADIATISPDQVRPIAYIDFENAFKTVRPTVSPKDLELYENWNETFGCGK",,binding [3]: binds
"FIGNL1 (mouse), N-terminally tagged (protein, UniProt Q8BPY9 1-683) METSSSMSVETTRSVQVDEWQKNYCVVTSSICTPKQKADAYRALLLHIQYAYANSEISQVFATNLFKRYTEKYSAIIDSDNVVTGLNNYAESIFALAGSRQADSNKWQSGLSIDNVFKMSCVQEMMQAGKKFEESLLEPADASVVLCKEPTAFEVPQLSVCGGSEDADILSSSGHDTDKTQAIPGSSLRCSPFQSARLPKETNTTKTCLTSSTSLGESATAAFHMTPLFGNTEKDTQSFPKTSTGLNMFLSNLSCVPSGCENPQERKAFNDSDIIDILSNPTLNKAPSKTEDRGRREDNSLPTFKTAKEQLWVDQKKKGHQSQHTSKSSNGVMKKSLGAGRSRGIFGKFVPPVSNKQDGSEQHAKKHKSSRAGSAEPAHLTDDCLKNVEPRMVELIMNEIMDHGPPVHWDDIAGVEFAKATIKEIVVWPMMRPDIFTGLRGPPKGILLFGPPGTGKTLIGKCIASQSGATFFSISASSLTSKWVGEGEKMVRALFAVARCQQPAVIFIDEIDSLLSQRGDGEHESSRRIKTEFLVQLDGATTSSEDRILVVGATNRPQEIDEAARRRLVKRLYIPLPEASARKQIVGNLMSKEQCCLSDEETDLVVQQSDGFSGADMTQLCREASLGPIRSLHAADIATISPDQVRPIAYIDFENAFKTVRPTVSPKDLELYENWNETFGCGK",binds,
"FIGNL1-ΔN150 (mouse) (domain or fragment, UniProt Q8BPY9 151-683) TAFEVPQLSVCGGSEDADILSSSGHDTDKTQAIPGSSLRCSPFQSARLPKETNTTKTCLTSSTSLGESATAAFHMTPLFGNTEKDTQSFPKTSTGLNMFLSNLSCVPSGCENPQERKAFNDSDIIDILSNPTLNKAPSKTEDRGRREDNSLPTFKTAKEQLWVDQKKKGHQSQHTSKSSNGVMKKSLGAGRSRGIFGKFVPPVSNKQDGSEQHAKKHKSSRAGSAEPAHLTDDCLKNVEPRMVELIMNEIMDHGPPVHWDDIAGVEFAKATIKEIVVWPMMRPDIFTGLRGPPKGILLFGPPGTGKTLIGKCIASQSGATFFSISASSLTSKWVGEGEKMVRALFAVARCQQPAVIFIDEIDSLLSQRGDGEHESSRRIKTEFLVQLDGATTSSEDRILVVGATNRPQEIDEAARRRLVKRLYIPLPEASARKQIVGNLMSKEQCCLSDEETDLVVQQSDGFSGADMTQLCREASLGPIRSLHAADIATISPDQVRPIAYIDFENAFKTVRPTVSPKDLELYENWNETFGCGK",no binding,
"FIGNL1-ΔN300 (mouse) (domain or fragment, UniProt Q8BPY9 301-683) LPTFKTAKEQLWVDQKKKGHQSQHTSKSSNGVMKKSLGAGRSRGIFGKFVPPVSNKQDGSEQHAKKHKSSRAGSAEPAHLTDDCLKNVEPRMVELIMNEIMDHGPPVHWDDIAGVEFAKATIKEIVVWPMMRPDIFTGLRGPPKGILLFGPPGTGKTLIGKCIASQSGATFFSISASSLTSKWVGEGEKMVRALFAVARCQQPAVIFIDEIDSLLSQRGDGEHESSRRIKTEFLVQLDGATTSSEDRILVVGATNRPQEIDEAARRRLVKRLYIPLPEASARKQIVGNLMSKEQCCLSDEETDLVVQQSDGFSGADMTQLCREASLGPIRSLHAADIATISPDQVRPIAYIDFENAFKTVRPTVSPKDLELYENWNETFGCGK",no binding,

# — PMC10484675
